Reference: patent US7208572B2, “Leptin-related peptides” (Albany Medical College, priority 1998, dated 2007)
“Also recorded” adds a separate entry of the source. Read-outs that look alike come from different tables or passages of the source. At least one peptide structure holds a part that was inferred or is arguable (an end, a ring closure or a residue). Marks after values point to notes of the source that are not given here. Ends that are not written are not given here.

Assays:
[1] = Body weight gain and food intake in female wild type (+/+) C57BLKS/J-m mice; format: in vivo, mouse
[2] = Blood glucose in wild type (+/+) C57BLKS/J-m mice; format: in vivo, mouse; details: 7 days
[3] = Epitope mapping: body weight and food intake in female C57BL/6J ob/ob mice, 7 daily ip injections; format: in vivo, mouse
Procedure: Animal procedures. Feeding and weighing schedules, as well as peptide administration protocols, are as described in EXAMPLE 8, supra.
Statistical analysis. Changes in body weight and differences in food intake between peptide-treated and vehicle-injected control mice were analyzed by analysis of variance (ANOVA) and considered significant when P<0.05.
Female ob/ob mice (n=6 per group) were given a single ip injection of 0.2 ml of vehicle (PBS, pH 7.2) or leptin-related synthetic peptide amide in 0.2 ml PBS for 7 consecutive days. Daily changes in body weight compared to pretreatment weights in both vehicle-injected control and peptide-treated mice are shown in FIG. 4. […] There was no evidence of weight loss in response to peptide treatment.

[4] = db/db mice

Substance: SCSLPQTSGLQKPES-NH2 [LEP(116–130), Ser-Cys-Ser-Leu-Pro-Gln-Thr-Ser-Gly-Leu-Gln-Lys-Pro-Glu-Ser]
- Reduction of body weight gain ([1]; wild type (+/+) mice, 7 days): approximately 3 fold
- Weight after 7 days ([1]; wild type C57BLKS/J-m, 1 mg/day ip): 18.2 ± 1.0 g
- Cumulative food intake ([1]; wild type C57BLKS/J-m, 1 mg/day ip, 7 days): 19.5 ± 0.4 gm/mouse
- Percent increase (body weight) ([1]; wild type C57BLKS/J-m, 7 days): +1.1%
- Weight increase ([1]; wild type C57BLKS/J-m, 7 days): +0.2 g
- Effect on blood glucose [2]: not significantly changed; also recorded: neither elevated nor lowered normal blood glucose levels
- Food intake ([3]; 0.5 mg/day): 41.5 ± 0.7 gm/mouse/7 days
- Percent heavier (+) or lighter (−) than initial weight ([3]; 0.5 mg/day, 7 days): −6.1^b Percent
- Reduction of food intake ([3]; 1 mg daily, 7 days): 14.3%
- Weight loss ([3]; 1 mg daily, after 7 days): 14.1%
- Food intake ([3]; 1.0 mg/day): 35.2 ± 1.3^b gm/mouse/7 days
- Cumulative food intake ([3]; 1 mg/day ip, 7 days): 34.7 ± 0.7^b gm/mouse
- Percent heavier (+) or lighter (−) than initial weight ([3]; 1 mg/day ip, 7 days): −14.4%
- Weight gain (+) or loss (−) ([3]; 1 mg/day ip, 7 days): −8.3^a g
- Percent heavier (+) or lighter (−) than initial weight ([3]; 1.0 mg/day, 7 days): −14.0^b Percent
- Food intake ([3]; 1.5 mg/day): 30.8 ± 0.4^b gm/mouse/7 days
- Percent heavier (+) or lighter (−) than initial weight ([3]; 1.5 mg/day, 7 days): −14.7^b Percent
- Food intake vs vehicle ([3]; 7 days): significantly (P=0.01) less than vehicle-injected control mice
- Weight after 7 days ([4]; 1 mg/day ip): 32.6 ± 1.8 g
- Cumulative food intake ([4]; 1 mg/day ip, 7 days): 64.9 ± 0.2^b gm/mouse
- Percent increase (body weight) ([4]; 1 mg/day ip, 7 days): +5.8%
- Weight increase ([4]; 1 mg/day ip, 7 days): +1.8 g
- More food consumed than vehicle-injected controls ([4]; 7 days): approximately 15%
- Reduction of body weight gain ([4]; 7 days): approximately 3 fold
